According to PMC9429754:
No constants are given. Whether binding was seen depends on the method and setting. Binding seen in cells or lysates may run through a third protein. Some binding calls cover weakened binding; strength is not graded here.

The chains behind the UniProt entries cited, without tags or fusion partners.
UniProt O43791: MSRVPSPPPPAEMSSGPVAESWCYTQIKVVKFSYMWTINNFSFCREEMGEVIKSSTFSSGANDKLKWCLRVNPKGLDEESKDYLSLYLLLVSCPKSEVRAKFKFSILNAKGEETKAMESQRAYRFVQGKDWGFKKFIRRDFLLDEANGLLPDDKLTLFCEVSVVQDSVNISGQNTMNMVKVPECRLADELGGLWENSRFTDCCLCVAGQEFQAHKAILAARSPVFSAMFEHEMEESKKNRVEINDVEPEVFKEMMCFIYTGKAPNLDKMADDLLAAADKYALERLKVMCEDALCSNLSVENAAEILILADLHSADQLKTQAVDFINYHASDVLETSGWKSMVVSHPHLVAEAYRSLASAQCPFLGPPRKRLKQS

Biological target: Nuclear speckle-type pox virus and zinc finger protein (SPOP), Myc-tagged (UniProt O43791)
Assay: co-IP; Myc-SPOP transfected in HeLa cells, harvested after 42 h, lysed in NP40 IP buffer; whole-cell extracts incubated with primary antibodies overnight at 4 °C, magnetic beads, washed three times with lysis buffer; Western blot

B1: CXCL16 (protein, UniProt Q9H2A7 30-254)
chain: NEGSVTGSCYCGKRISSDSPPSVQFMNRLRKHLRAYHRCLYYTRFQLLSWSVCGGNKDPWVQELMSCLDLKECGHAYSGIVAHQKHLLPTSPPISQASEGASSDIHTPAQMLLSTLQSTQRPTLPVGSLSSDKELTRPNETTIHTAGHSLAAGPEAGENQKQPEKNAGPTARTSATVPVLCLLAIIFILTAALSYVLCKRRRGQSPQSSPDLPVHYIPVAPDSNT
binding: binds
